Here are results for 1 sequence from paper PMC3097237, “Exploiting Nucleotide Composition to Engineer Promoters”.

The chains behind the UniProt entries cited, without tags or fusion partners.
UniProt P20226, whole entry: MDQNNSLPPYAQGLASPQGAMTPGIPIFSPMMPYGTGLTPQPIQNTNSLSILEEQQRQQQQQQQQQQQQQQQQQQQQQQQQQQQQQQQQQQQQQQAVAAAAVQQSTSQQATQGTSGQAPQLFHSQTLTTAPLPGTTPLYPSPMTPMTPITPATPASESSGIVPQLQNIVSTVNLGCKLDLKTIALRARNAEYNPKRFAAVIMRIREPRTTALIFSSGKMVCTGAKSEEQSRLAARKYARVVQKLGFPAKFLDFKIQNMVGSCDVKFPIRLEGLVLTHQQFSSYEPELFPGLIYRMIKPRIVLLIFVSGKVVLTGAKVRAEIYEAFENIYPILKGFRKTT

Construct, isoform or probe ends are uncertain for at least one entry.

The data set concerns the target TBP (UniProt P20226). The data set is described as follows: BLI. The following applies: 285 nM TBP, highest association, no Kd (linear binding); BLI (ForteBio Octet QK), streptavidin sensors loaded with biotinylated DNA 25 ug/ml, 1x Kinetics Buffer (ForteBio); pH and temperature not stated; commercial protein; label: 5' biotin (one strand, PCR primer). For orientation: Biolayer interferometry detects binding as a change in optical thickness at a sensor tip.

For the sequence “TCGACGCGCGTATAACACGCGAGCGGTTCGAACGTTGGCGCGCTAACGCGAGTCGTACGCCCGTCAACGCGGATCAATCGCGCGACTTGTGCGCGACGTTAGACCGCCGATCGTCAAGCGCCGATCGGTAATCGGACGATTCGGATACGCGAGTTCGGACGTACGAGCGTGATACGGCGCGTAACGGTGCGCGTTAAAACGCCGACGCGTCATAACCGCGACTCGTCGACGC (double strand) [ArS232]”, the binding result is reported as “binds”.
